{
  "sequences": {"note": "Amino acid sequences for entries named in this document (tags omitted).", "UniProt Q9Y5N1, whole entry": "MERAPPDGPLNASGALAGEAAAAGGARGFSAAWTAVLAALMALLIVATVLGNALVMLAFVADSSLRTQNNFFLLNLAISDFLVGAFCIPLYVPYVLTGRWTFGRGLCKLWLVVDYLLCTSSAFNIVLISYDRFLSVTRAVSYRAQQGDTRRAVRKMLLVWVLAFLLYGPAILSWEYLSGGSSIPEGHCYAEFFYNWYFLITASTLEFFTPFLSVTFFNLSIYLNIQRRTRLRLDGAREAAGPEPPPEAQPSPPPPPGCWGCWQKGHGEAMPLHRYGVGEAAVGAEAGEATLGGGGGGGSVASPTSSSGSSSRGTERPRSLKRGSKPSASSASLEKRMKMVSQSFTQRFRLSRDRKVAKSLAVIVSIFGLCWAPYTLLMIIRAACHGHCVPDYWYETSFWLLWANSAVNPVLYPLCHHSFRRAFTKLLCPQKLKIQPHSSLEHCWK", "UniProt Q9QYN8, whole entry": "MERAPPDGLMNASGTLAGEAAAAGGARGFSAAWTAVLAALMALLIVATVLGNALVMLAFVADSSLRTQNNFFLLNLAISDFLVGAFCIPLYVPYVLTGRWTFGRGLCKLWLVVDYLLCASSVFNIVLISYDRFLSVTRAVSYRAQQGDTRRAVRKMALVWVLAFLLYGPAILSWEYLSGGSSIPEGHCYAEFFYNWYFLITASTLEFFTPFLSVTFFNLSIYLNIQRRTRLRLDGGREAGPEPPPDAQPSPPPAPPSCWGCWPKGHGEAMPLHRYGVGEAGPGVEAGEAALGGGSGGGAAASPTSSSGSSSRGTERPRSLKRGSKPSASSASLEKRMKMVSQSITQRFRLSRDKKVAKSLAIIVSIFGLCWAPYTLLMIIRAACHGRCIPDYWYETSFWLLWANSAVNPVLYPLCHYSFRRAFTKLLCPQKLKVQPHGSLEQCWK"},
  "source": "patent US8513232B2",
  "about": "“Substituted spirocyclic piperidine derivatives as histamine-3 (H3) receptor ligands” (Cephalon, Inc., priority 2008, dated 2013)",
  "key": {"[1]": {"target": "human H3 receptor (Homo sapiens, UniProt Q9Y5N1)", "assay": "Human H3 radioligand binding ([3H]-N-alpha-methylhistamine, SPA)", "conditions": "read-out: Human H3 Ki, Table D", "method": "Methods: CHO cells stably expressing the human H3 receptor (GenBank: NM_007232) were harvested and cell pellets were frozen (−80° C.). Cell pellets were resuspended in 5 mM Tris-HCl, pH 7.5 with […] and a cocktail of protease inhibitors (Complete Protease Inhibitior Tablets, Roche Diagnostics). Cells were disrupted using a polytron cell homogenizer and the suspension was centrifuged at 1000×g for 10 minutes at 4° C. The pellet was discarded and the supernatant centrifuged at 40,000×g for 30 min at 4° C. This membrane pellet was washed in membrane buffer containing 50 mM Tris-HCl, pH 7.5 with 0.6 mM EDTA, 5 mM MgCl2 and protease inhibitors, recentrifuged as above and the final pellet resuspended in membrane buffer plus 250 mM sucrose and frozen at −80° C.\nRadioligand Binding. Membranes were resuspended in 50 mM Tris HCl (pH 7.4), 5 mM MgCl2, 0.1% BSA. […] Non-specific binding was determined in the presence of 10 μM clobenpropit. Radioligand bound to receptor, and therefore in proximity to the scintillation beads, was measured using a MicroBeta scintillation counter."}, "[2]": {"target": "rat histamine H3 receptor (Rattus norvegicus, UniProt Q9QYN8)", "assay": "Rat H3 radioligand binding ([3H]-N-alpha-methylhistamine, SPA)", "conditions": "read-out: Rat H3 Ki, Table D"}},
  "note": "Structures were worked out from names or drawings and are uncertain.",
  "data": [
    {"smiles": "O=C(c1ccc(-c2ccc3c(c2)COC2(CCN(C4CCC4)CC2)O3)cc1Cl)N1CCOCC1", "values": [
      {"measurement": "Ki", "setting": "[1]", "result": "< 200", "unit": "nM"},
      {"measurement": "Ki", "setting": "[2]", "result": "< 200", "unit": "nM"}
    ]}
  ]
}
